Laboratory results: PubChem BioAssay AID1508588 (Peter MacCallum Cancer Centre, 2020)

Assay: 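Genome-wide search for knock-downs that heighten vemurafenib action in melanoma cells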 (primary screen)
System: human WM266.4 melanoma cells (BRAF V600 mutant)
Reagents: siRNA pool against human genes, 40 nM
Duration: 96 h from transfection to read-out
Conditions: vemurafenib 300 nM (about IC25), added 48 h after transfection, for 48 h; comparison arm got DMSO vehicle only
Detection: 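Ratios to non-targeting siRNA for cell gain, counted as DAPI nuclei after minus before drug and averaged over two replicates, and for absorbance-read medium lactate per cell; both binned into fold-change classes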
Direction: cell gain with vemurafenib: higher = more cell gain than with non-targeting siRNA; lactate per cell with vemurafenib: higher = more lactate made per cell
Rule for the call: 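a knock-down counts as enhancing when its fold-change classes with vehicle and with vemurafenib, taken together, show a stronger drug effect on cell gain or lactate per cell; exact class pairs not stated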
Calls: active = enhances vemurafenib effect; inactive = no enhancement seen
Here is an unselected part of about 18,000 reagents tested. Of all reagents, 790 (4.4%) are marked active. 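Calls rest on a combination of fold-change classes in drug and vehicle arms, not all shown here.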 Reagents against one gene are numbered here. A reagent listed more than once was tested more than once; the source does not tell the runs apart.

gene	reagent no.	cell gain with vemurafenib	lactate per cell with vemurafenib	outcome
SETD5 (SET domain containing 5)	1	0.81	0.95	inactive
PRY (PTPN13 like Y-linked)	1	0.15	0.7	active
ZNF275 (zinc finger protein 275)	1	0.93	0.52	inactive
STUM (stum, mechanosensory transduction mediator homolog)	1	0.06	1.89	inactive
SLC1A4	1	0.75	0.52	inactive
TNIK (TRAF2 and NCK interacting kinase)	1	0.51	1.28	inactive
KCTD20 (potassium channel tetramerization domain containing 20)	1	0.37	1.35	inactive
HIKESHI (heat shock protein nuclear import factor hikeshi)	1	0.46	1.58	inactive
CYBB (cytochrome b-245 beta chain)	1	0.29	0.9	inactive
MARCHF5 (membrane associated ring-CH-type finger 5)	1	-0.04	1.88	inactive
GNS (glucosamine (N-acetyl)-6-sulfatase)	1	0.43	0.66	inactive
SLC25A5	1	1.33	1.12	inactive
STT3A (STT3 oligosaccharyltransferase complex catalytic subunit A)	1	0.1	0.22	inactive
SLC17A5	1	0.79	0.64	inactive
NCAPG2 (non-SMC condensin II complex subunit G2)	1	0.77	1.03	inactive
CNPY2 (canopy FGF signaling regulator 2)	1	0.81	0.72	inactive
CUL3 (cullin 3)	1	0.5	2.02	inactive
PSMD14 (proteasome 26S subunit, non-ATPase 14)	1	-0.08	3.49	inactive
DUS1L (dihydrouridine synthase 1 like)	1	0.15	1.54	inactive
PRPH2 (peripherin 2)	1	0.05	2.91	inactive
THOC5 (THO complex subunit 5)	1	0.47	1.64	inactive
NEK2 (NIMA related kinase 2)	1	0.45	1.63	inactive
COL14A1 (collagen type XIV alpha 1 chain)	1	0.56	1.49	inactive
P2RY10 (P2Y receptor family member 10)	1	0.8	0.84	inactive
BOLA2B (bolA family member 2B)	1	0.66	1.29	inactive
MORN3 (MORN repeat containing 3)	1	1	0.55	inactive
ZNF83 (zinc finger protein 83)	1	0.79	0.44	inactive
APH1B (aph-1B gamma-secretase subunit)	1	-0.08	1.34	inactive
WDR81 (WD repeat domain 81)	1	0.5	1.11	inactive
TRMT11 (tRNA methyltransferase 11)	1	0.84	1.12	inactive
TCAF1 (TRPM8 channel associated factor 1)	1	0.34	0.5	inactive
TMEM234 (transmembrane protein 234)	1	0.45	0.6	inactive
OR2A5 (olfactory receptor family 2 subfamily A member 5)	1	0.97	0.32	inactive
H3C14 (H3 clustered histone 14)	1	0.83	0.94	inactive
CD99L2 (CD99 molecule like 2)	1	0.36	1.02	inactive
E2F6 (E2F transcription factor 6)	1	1.18	0.57	inactive
MEST (mesoderm specific transcript)	1	0.85	0.52	inactive
SRPRA (SRP receptor subunit alpha)	1	0.25	1.29	inactive
SIT1 (signaling threshold regulating transmembrane adaptor 1)	1	1.05	1.15	inactive
SETDB1 (SET domain bifurcated histone lysine methyltransferase 1)	1	0.52	1.07	inactive
FAM133A (family with sequence similarity 133 member A)	1	0.53	1.83	inactive
REEP6 (receptor accessory protein 6)	1	0.57	1.37	inactive
OR56A4 (olfactory receptor family 56 subfamily A member 4)	1	0.84	0.81	inactive
PARD6A (par-6 family cell polarity regulator alpha)	1	0.34	0.8	inactive
LNX1 (ligand of numb-protein X 1)	1	0.7	0.6	inactive
NALF2 (NALCN channel auxiliary factor 2)	1	1.07	0.9	inactive
SLC35G1	1	0.65	0.45	inactive
CLTB (clathrin light chain B)	1	-0.16	3.54	inactive
PAOX (polyamine oxidase)	1	0.78	0.82	inactive
KIF20A (kinesin family member 20A)	1	0.07	1.17	inactive
UBLCP1 (ubiquitin like domain containing CTD phosphatase 1)	1	0.6	0.97	inactive
HTR3B (5-hydroxytryptamine receptor 3B)	1	0.5	1.01	inactive
HTR3B (5-hydroxytryptamine receptor 3B)	1	0.21	1.09	inactive
C19orf18 (chromosome 19 open reading frame 18)	1	1.09	0.59	inactive
RSU1 (Ras suppressor protein 1)	1	0.55	1.23	inactive
EXOSC6 (exosome component 6)	1	0.21	1.37	inactive
EEF1D (eukaryotic translation elongation factor 1 delta)	1	1.14	0.34	inactive
RBMS1 (RNA binding motif single stranded interacting protein 1)	1	0.33	0.57	inactive
PTEN (phosphatase and tensin homolog)	1	0.63	1.2	inactive
SYT7 (synaptotagmin 7)	1	0.84	0.85	inactive
RBM44 (RNA binding motif protein 44)	1	0.49	0.7	inactive
DEFB130A (defensin beta 130A)	1	0.56	0.55	inactive
CFAP74 (cilia and flagella associated protein 74)	1	0.92	0.83	inactive
CFAP74 (cilia and flagella associated protein 74)	2	0.34	0.94	inactive
UBAC1 (UBA domain containing 1)	1	0.76	1.02	inactive
GSDMA (gasdermin A)	1	0.7	0.54	inactive
TMEM92 (transmembrane protein 92)	1	0.93	1.57	inactive
ELOVL5 (ELOVL fatty acid elongase 5)	1	0.88	1.06	inactive
UPK1B (uroplakin 1B)	1	0.76	0.44	inactive
PSME3 (proteasome activator subunit 3)	1	0.31	1.82	inactive
NAA60 (N-alpha-acetyltransferase 60, NatF catalytic subunit)	1	0.54	1.23	inactive
MAS1 (MAS1 proto-oncogene, G protein-coupled receptor)	1	0.85	0.9	inactive
FNBP1 (formin binding protein 1)	1	1.05	0.7	inactive
ZBTB2 (zinc finger and BTB domain containing 2)	1	-0.02	2.04	inactive
PCDHB9 (protocadherin beta 9)	1	0.63	1.31	inactive
CCNO (cyclin O)	1	1.06	0.7	inactive
THBS1 (thrombospondin 1)	1	0.3	2.03	inactive
RAB2B (RAB2B, member RAS oncogene family)	1	0.61	1.56	inactive
DEFA1 (defensin alpha 1)	1	0.59	0.37	inactive
FUCA2 (alpha-L-fucosidase 2)	1	0.57	0.86	inactive
NUTM2G (NUT family member 2G)	1	0.91	0.47	inactive
YIPF2 (Yip1 domain family member 2)	1	0.87	1.03	inactive
VCY1B (variable charge Y-linked 1B)	1	0.66	1.42	inactive
ZNF225 (zinc finger protein 225)	1	1.02	0.72	inactive

Already shown: 9 of the entries above.
gene	reagent no.	cell gain with vemurafenib	lactate per cell with vemurafenib	outcome
TRMT11 (tRNA methyltransferase 11)	1	0.84	1.12	inactive
TCAF1 (TRPM8 channel associated factor 1)	1	0.34	0.5	inactive
TMEM234 (transmembrane protein 234)	1	0.45	0.6	inactive
OR2A5 (olfactory receptor family 2 subfamily A member 5)	1	0.97	0.32	inactive
H3C14 (H3 clustered histone 14)	1	0.83	0.94	inactive
CD99L2 (CD99 molecule like 2)	1	0.36	1.02	inactive
E2F6 (E2F transcription factor 6)	1	1.18	0.57	inactive
MEST (mesoderm specific transcript)	1	0.85	0.52	inactive
SRPRA (SRP receptor subunit alpha)	1	0.25	1.29	inactive
